Results from article PMC5325437.
Results are given in words; binding and its absence hold for the method and conditions named. In cells and extracts the contact can be indirect. Some binding calls cover weakened binding; strength is not graded here.

Amino acid sequences for entries named in this document (tags omitted).
UniProt Q9UBN7: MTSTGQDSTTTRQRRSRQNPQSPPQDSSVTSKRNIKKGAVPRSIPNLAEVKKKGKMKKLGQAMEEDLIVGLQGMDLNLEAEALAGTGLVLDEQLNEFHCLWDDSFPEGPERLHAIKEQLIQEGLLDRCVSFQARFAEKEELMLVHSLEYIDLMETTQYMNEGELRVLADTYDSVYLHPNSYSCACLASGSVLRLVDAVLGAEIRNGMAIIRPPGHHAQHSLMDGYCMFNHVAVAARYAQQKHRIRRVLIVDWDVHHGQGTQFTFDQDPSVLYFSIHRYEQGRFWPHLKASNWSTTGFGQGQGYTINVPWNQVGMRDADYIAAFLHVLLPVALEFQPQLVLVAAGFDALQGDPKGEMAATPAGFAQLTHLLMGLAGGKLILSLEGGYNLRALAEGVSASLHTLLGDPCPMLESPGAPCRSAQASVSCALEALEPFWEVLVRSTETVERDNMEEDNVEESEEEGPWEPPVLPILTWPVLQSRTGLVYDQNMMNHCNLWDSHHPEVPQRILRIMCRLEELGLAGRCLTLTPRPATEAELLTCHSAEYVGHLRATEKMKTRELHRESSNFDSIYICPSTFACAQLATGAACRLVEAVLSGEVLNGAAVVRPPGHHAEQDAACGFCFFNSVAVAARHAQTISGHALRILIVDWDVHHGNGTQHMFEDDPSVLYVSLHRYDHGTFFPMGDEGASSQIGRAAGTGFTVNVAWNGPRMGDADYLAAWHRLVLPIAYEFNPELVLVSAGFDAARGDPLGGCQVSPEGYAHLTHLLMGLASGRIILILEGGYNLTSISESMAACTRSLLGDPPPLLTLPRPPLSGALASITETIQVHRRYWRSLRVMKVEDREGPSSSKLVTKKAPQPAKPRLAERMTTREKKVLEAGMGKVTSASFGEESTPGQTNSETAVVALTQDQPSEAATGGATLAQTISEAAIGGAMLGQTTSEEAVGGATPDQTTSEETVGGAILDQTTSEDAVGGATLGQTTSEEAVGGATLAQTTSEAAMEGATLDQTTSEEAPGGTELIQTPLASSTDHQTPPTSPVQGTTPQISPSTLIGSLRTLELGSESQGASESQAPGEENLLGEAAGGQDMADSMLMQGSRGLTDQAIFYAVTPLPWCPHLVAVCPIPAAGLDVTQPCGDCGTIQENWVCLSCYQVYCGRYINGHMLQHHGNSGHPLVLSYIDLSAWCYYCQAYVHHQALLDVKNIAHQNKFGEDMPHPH

Target: Histone deacetylase 6 (HDAC6) (human (endogenous in RASFs)) (UniProt Q9UBN7)
Assay: proximity ligation; in situ proximity ligation assay (Duolink kit) in RASFs fixed with 4% paraformaldehyde and permeabilised with 0.1% Triton X-100; two primary antibodies (anti-p97, anti-HDAC6, anti-polyubiquitin K48) overnight at 4°C

Substance: Valosin containing protein (p97) (from UniProt P55072 1-806)
- binding: binds
